From the supplement of paper PMC6289059
Some of the results follow. Many values rest on one well or one pass, so single values are uncertain.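 Hepatocyte-like cells derived from human stem cells with CRISPR-disrupted DGUOK model liver mtDNA depletion syndrome. Each well's ATP signal was scored against other wells on the same plate, and drugs scoring 3 or above were primary hits.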

The molecules below were run on DGUOK Δ14/Δ5 iPSC-derived hepatocyte-like cells (SV20) (assay: ATP level (CellTiter-Glo luminescence) Z score relative to plate distribution, under 2-DG glycolysis block; higher = more cellular ATP (rescue of mitochondrial ATP production)). Conditions: 5 µM; treatment time: day 15 to day 20 of differentiation (5 days); 2-deoxy-D-glucose: 20 mM for 24 h before assay.

| SMILES | ATP level |
| --- | --- |
| CC1(C)S[C@@H]2[C@H](NC(=O)[C@H](NC(=O)N3CCNC3=O)c3ccccc3)C(=O)N2[C@H]1C(=O)O | inactive: -28.2 |
| COc1c(-c2coc3cc4c(cc3c2=O)CC(OC(C)=O)C(C)(C)O4)ccc2c1C=CC(C)(C)O2 (stereo unspecified) | inactive: -3.48 |
| CC(C)c1ccc2oc3nc(N)c(C(=O)O)cc3c(=O)c2c1 | inactive: 2.72 |
| CCCCCCCCCc1ccc(OCCOCCOCCOCCOCCOCCOCCOCCOCCO)cc1 | active: 4.83 |
| NC(=O)c1cc[n+](CC2=C(C(=O)O)N3C(=O)[C@@H](NC(=O)[C@@H](c4ccccc4)S(=O)(=O)[O-])[C@H]3SC2)cc1 | inactive: -0.177 |
| CCCCCCc1ccc(O)cc1O.Nc1c2ccccc2nc2ccccc12 | active: 10.8 |
| CC1(C)CC[C@]2(C)CC[C@]3(C)C(=CC[C@@H]4[C@@]5(C)CC[C@H](O)C(C)(C)[C@@H]5CC[C@]43C)[C@@H]2C1 [beta-AMYRIN] | inactive: 1.15 |
| Cc1cc2c(cc1S(N)(=O)=O)S(=O)(=O)CCC2 | inactive: -0.679 |
| CN1C(C)(C)CCCC1(C)C | inactive: 0.808 |
| Cc1cc(O)c(C=O)c2c1C(=O)Oc1c(C)c(O)c3c(c1O2)C(O)OC3=O (stereo unspecified) | inactive: -1.33 |
| Cc1onc(-c2c(Cl)cccc2Cl)c1C(=O)N[C@@H]1C(=O)N2[C@@H]1SC(C)(C)[C@@H]2C(=O)O | inactive: 1.68 |
| O=c1ccc2ccc(O)cc2o1 | inactive: -1.19 |
| CN(C)/N=N/c1[nH]cnc1C(N)=O | inactive: 0.442 |
| C[N+](C)(C)CCCCCC[N+](C)(C)C | inactive: -1.29 |
| CC[N+](C)(C)Cc1ccccc1Br | inactive: 1.52 |
| CC1CC(OC(=O)C(O)c2ccccc2)CC(C)(C)C1 (stereo unspecified) | inactive: 0.944 |
| Cc1oncc1C(=O)Nc1ccc(C(F)(F)F)cc1 | inactive: -2.27 |
| CC(=O)Oc1ccc2c(c1)CC[C@@H]1[C@@H]2CC[C@]2(C)[C@@H](O)CC[C@@H]12 | inactive: -0.39 |
| O=C(O)c1cccnc1Nc1cccc(C(F)(F)F)c1 | inactive: 1.28 |
| O=C(O)c1cccc(O)c1O | inactive: -1.4 |
| CC(CCc1ccccc1)NCC(O)c1ccc(O)c(C(N)=O)c1 (stereo unspecified) | active: 4.79 |
| CCOC(=O)[C@H](CCc1ccccc1)N[C@@H](C)C(=O)N1Cc2ccccc2C[C@H]1C(=O)O | active: 11.2 |
| CN(C)CCCN1c2ccccc2Sc2ccccc21 | inactive: -7.89 |
| Cc1cc(C(C)(C)C)c(O)c(C)c1CC1=NCCN1 | inactive: -2.47 |
| C=CC(C1=CC(=O)C=CC1=O)c1ccccc1 (stereo unspecified) | inactive: -0.302 |
| COc1ccc2c(=O)ccoc2c1 | inactive: 0.183 |

Two compounds picked at random from the list so far:

| SMILES | ATP level |
| --- | --- |
| CN(C)/N=N/c1[nH]cnc1C(N)=O | inactive: 0.442 |
| COc1ccc2c(=O)ccoc2c1 | inactive: 0.183 |
